# Results taken from paper PMC12040169 (PLOS Biology, 2025).
# This is one part of the list.
# Test system: T1, CTL2-GFP (C. trachomatis L2/434/Bu, GFP-expressing)
# T1 construct: L2/434/Bu, GFP-expressing
# Set-up: species or system HeLa; Intracellular C. trachomatis growth in HeLa cells, bulk GFP fluorescence relative to DMSO
# Details: bulk GFP, single well; 28.5 h, 10 µM; inhibitor
row,Compound,% of control remaining [%]
1,CN(C)CCCC(=O)Nc1ccc2ncccc2c1 [CBK159824],104.025
2,CONc1nc(NC(C)(C)C)nc(OCC#N)n1 [CBK263655],136.142
3,O=C(Nc1ccccc1)Nc1ccccc1C(=O)NCc1ccccc1 [CBK265338],127.692
4,Cc1cc(NC(=O)c2cc(Cl)sc2Cl)no1 [CBK010872],141.198
5,CC1CN(C(=S)Nc2ccc3ccccc3c2)CC(C)O1 (stereo not shown) [CBK004993],105.07
6,COCC1=C(C(=O)OC)[C@H](c2ccc(F)c(F)c2)N(C(=O)NCCCN2CCC(c3cccc(NC(C)=O)c3)CC2)C(=O)N1 [CBK051451C],134.541
7,CN(C)c1cc(=O)c2cc3c(cc2o1)CCC3 [CBK010017],149.378
8,O=C1N(CN2CCN(C(c3ccccc3)c3ccccc3)CC2)c2ccccc2C12OCCO2 [CBK265537],129.315
9,COCCN(Cc1cc2ccc(C)cc2nc1O)C(=O)c1cccs1 [CBK269324],99.6175
10,N#CCCn1cc(C(=O)N2CCCCC2)c(-c2cccs2)n1 [CBK306194],186.019
11,CCN1CCN(Cc2ccccc2[N+](=O)[O-])CC1 [CBK261561],95.9413
12,O=C(NC1CCCC1)C1CCCN1c1nc(O)cc(C(F)(F)F)n1 (stereo not shown) [CBK003927],118.9
13,O=C(CN1CCCC2(CCN(C(=O)Cc3c[nH]c4ccccc34)C2)C1)Nc1ncccn1 (stereo not shown) [CBK132048],109.163
14,COc1ccc(Cl)cc1NC(=O)CCSc1ccccc1 [CBK263969],120.705
15,Clc1ccc(COc2cncc(OC3CCN(CC4CC4)C3)n2)cc1Cl (stereo not shown) [CBK084443],118.715
16,O=C(NCCOc1ccccc1)N1CCN(Cc2ccccc2)CC1 [CBK155652],124.242
17,O=C(c1cccnc1)C1CCN(C(=O)Cc2ccc(Cl)cc2)CC1 [CBK283813],120.184
18,CCC#CC(=O)Nc1cncc(OC2CCNCC2)n1 [CBK026731T],103.391
19,O/N=C/c1ccc(-c2cc(Cl)ccc2Cl)o1 [CBK288500],122.726
20,O=C(O)c1ccc(C(=O)O)c2c(C(=O)O)cccc12 [CBK261356],100

# Arranged by formula weight (rising): some entries from above.
row,Compound,% of control remaining [%]
7,CN(C)c1cc(=O)c2cc3c(cc2o1)CCC3 [CBK010017],149.378
1,CN(C)CCCC(=O)Nc1ccc2ncccc2c1 [CBK159824],104.025
18,CCC#CC(=O)Nc1cncc(OC2CCNCC2)n1 [CBK026731T],103.391
5,CC1CN(C(=S)Nc2ccc3ccccc3c2)CC(C)O1 (stereo not shown) [CBK004993],105.07
14,COc1ccc(Cl)cc1NC(=O)CCSc1ccccc1 [CBK263969],120.705
17,O=C(c1cccnc1)C1CCN(C(=O)Cc2ccc(Cl)cc2)CC1 [CBK283813],120.184
6,COCC1=C(C(=O)OC)[C@H](c2ccc(F)c(F)c2)N(C(=O)NCCCN2CCC(c3cccc(NC(C)=O)c3)CC2)C(=O)N1 [CBK051451C],134.541

# Going on with the list.

row,Compound,% of control remaining [%]
1,O=[N+]([O-])c1ccc(CN2CCC(Oc3cncc(OCc4cccnc4)n3)C2)cc1 (stereo not shown) [CBK084456],102.06
2,CCOC1(c2ccccc2)N=C2C(Cl)=CC(C(F)(F)F)=CN2N=C1c1ccccc1 (stereo not shown) [CBK020634],113.87
3,Cc1ccc(C(=O)N2CCC3(CC2)CNC(=O)c2ccccc2O3)o1 [CBK285328],131.433
4,C[S+]([O-])c1ccc(-c2cnc(NCC3CCN(C(=O)OC(C)(C)C)CC3)cn2)cc1 (stereo not shown) [CBK173723],169.086
5,Cn1ccc(CN2CCOC(c3nccs3)C2)cc1=O (stereo not shown) [CBK304921],120.284
6,O=C(CCN1C(=O)c2ccccc2C1=O)NC(=S)Nc1ccccc1 [CBK267595],97.753
7,CCC(=O)N1CCc2cc(C(O)CN3CCCCC3)ccc21 (stereo not shown) [CBK283111],112.23
8,Cc1nc2ccc(C(=O)NCCCN3Cc4ccccc4C3)cc2[nH]1 [CBK283301],122.178
9,CC(C)(C)OC(=O)N1CCC(OCc2cn(-c3ccc(-n4cncn4)cc3)nn2)CC1 [CBK149477],166.4
10,CNC(=O)c1ccc(-c2ccccc2C)nc1NCCOC [CBK106007],100
11,Cc1cc(NC(=O)c2cccc(C(F)(F)F)c2)c2ccccc2n1 [CBK116263],89.4836
12,O=C(NC(N1CCCCC1)C(Cl)(Cl)Cl)c1ccc(Cl)cc1Cl (stereo not shown) [CBK261024],98.3408
13,O=C(N1CCOCC1)C12CC3CC(CC(C3)C1)C2 [CBK089368],96.1948
14,Cc1nc[nH]c1CN(Cc1ccccc1)C1CC(C)(C)NC(C)(C)C1 [CBK283178],117.018
15,O=C(CSCc1ccc(Cl)c(Cl)c1)Nc1ncccn1 [CBK269998],141.701
16,NS(=O)(=O)c1ccc(NC(=O)CSc2nc3sc4c(c3c(=O)[nH]2)CCC4)cc1 [CBK265554],124.553
17,O=C(Cc1cccc(F)c1)NCCn1nc(-c2ccco2)ccc1=O [CBK283708],129.269
18,O=C(Nc1ccc(Oc2cccnc2)cc1)C1CCCN1 (stereo not shown) [CBK282498],89.0574
19,CCn1ncnc1CN1CCOc2ccc(CO)cc2C1 [CBK307245],177.541
20,CN1CCC(N(C)C(=O)c2ccc(-c3ccccc3CO)cc2)C1 (stereo not shown) [CBK307432],99.7627
